Reference: patent publication US20190153106A1
Results are given in words; binding and its absence hold for the method and conditions named. Some binding calls cover weakened binding; strength is not graded here.

Chains of the proteins cited; added tags and fusions are not shown. Lines headed by an entry give the natural chain unless they say otherwise; changes in a name come on top.
UniProt B0L3A2: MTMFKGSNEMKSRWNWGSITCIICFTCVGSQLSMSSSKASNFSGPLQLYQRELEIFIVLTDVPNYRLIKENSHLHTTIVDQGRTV

Columns and labels:
[1] = target: human DEspR (dual endothelin-1/VEGF signal peptide receptor) (human) (UniProt B0L3A2); assay: FACS displacement on Panc1 CSCs
[2] = target: human DEspR (dual endothelin-1/VEGF signal peptide receptor) (human) (UniProt B0L3A2); assay: internalization imaging on Panc1 cells
[3] = target: human DEspR (dual endothelin-1/VEGF signal peptide receptor) (human) (UniProt B0L3A2); assay: FACS displacement of AF568-labelled 7C5B2 on Panc1 CSCs
[4] = target: human DEspR (dual endothelin-1/VEGF signal peptide receptor) (human) (UniProt B0L3A2); assay: confocal time series, AF568-labelled mAb on Panc1 tumor cells
[5] = target: human DEspR (dual endothelin-1/VEGF signal peptide receptor) (human) (UniProt B0L3A2); assay: FACS of Panc1 CSCs with 10 µg/ml AF568-7C5B2, 4 °C, 20 min
[6] = target: human DEspR (dual endothelin-1/VEGF signal peptide receptor) (human) (UniProt B0L3A2); assay: live-cell confocal imaging of Panc1 tumor cells, internalization
[7] = target: human DEspR (dual endothelin-1/VEGF signal peptide receptor) (human) (UniProt B0L3A2); assay: live-cell confocal imaging of Panc1 tumor cells, uptake of the AF568-labelled 7C5 murine mAb
[8] = target: human DEspR (dual endothelin-1/VEGF signal peptide receptor) (human) (UniProt B0L3A2); assay: FACS displacement of AF568-7C5B2 (10 µg/ml) from Panc1 CSCs; peptide at 100x molar excess

Measured: binding

B1: 7C5B2 mouse anti-human DEspR monoclonal antibody (antibody, V domains shown)
VH: QVQLKESGPGLVAPSQSLSITCTVSGFSLKSYAVSWVRQPPGKGLEWLGVIWGDGSTDYHSALISRLSISKDNSKSQFFLRLNSLQTDDTATYYCARGTGTGFAYWGQGTLVTVSA
VL: DVVMTQTPLSLPVSLGDQASISCRSSQSLVHSNGNTYLHWYLQKPGQSPKLLIYKVSNRFSGVPDRFSGSGSGTDFTLKISRVEAEDLGIYFCSQCTHIPWTFGGGTNLEIK
not listed: [8]
binds: all other assays above

MNFLLSWVHWSLALLLYLHHAKWSQA (ligand) [VEGFsp26 (VEGF signal peptide 26)]
binds: [8]

MNFLLSWVHWSLALLLY (ligand) [VEGFsp17 (VEGF signal peptide 17)]
binds: [8]
